The values that follow come from article PMC7862700.

Protein sequences, listed by entry. Tags and fused reporters are not part of them. Lines headed by an entry give the natural chain unless they say otherwise; changes in a name come on top.
UniProt O43186: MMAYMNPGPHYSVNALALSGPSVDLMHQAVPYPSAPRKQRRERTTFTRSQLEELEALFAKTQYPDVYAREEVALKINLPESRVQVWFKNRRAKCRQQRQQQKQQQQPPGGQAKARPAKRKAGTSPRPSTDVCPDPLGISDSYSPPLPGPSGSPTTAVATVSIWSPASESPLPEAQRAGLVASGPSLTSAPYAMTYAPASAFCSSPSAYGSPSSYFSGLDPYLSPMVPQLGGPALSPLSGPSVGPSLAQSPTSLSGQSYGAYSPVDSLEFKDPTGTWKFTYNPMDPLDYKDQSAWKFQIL

The list shows a part of the results, in another mix than the full data. At the low end of the ranking the order means little.

The test concerns the target CRX (UniProt O43186). Put plainly: DAPPL (digital affinity profiling via proximity ligation, sequencing). As to conditions: 10 mM Tris-HCl pH 7.5, 50 mM NaCl, 1 mM DTT, 4% glycerol, room temperature, 30 min; GST-TFs on glutathione beads, 16-mer random dsDNA library, 0.1% …; high values mean tight binding; double strand, one strand shown; scale: fold enrichment (6-mer frequency, TF over GST control).
Consider CTTAGA, for which the binding signal was determined as 1.69. The same measure for AATCAA: 1.32; for ATGGCC: 1.08; for CCAATG: 0.847.

The sequence TGTTTG gave a binding signal of 1.08. The result for CGTACT reads 1.07. In the case of AATGCT, the binding signal amounted to 1.26. The result for TCGCAC reads 0.886.

TTTGGC returned a binding signal of 1.49. The result for TGGTTT reads 1.5; that for CTGAAT, 1.34; that for TCAATA, 1.34. The result for ATAACT reads 1.29. Consider CTTCGG, for which the binding signal was 1.52. The result for AGGAAA reads 0.822; that for CTATCT, 1.4. The result for GAAGCA reads 0.826. The result for AATGGC reads 1.26; that for ATGCGG, 0.918. Sequence ATGATC had a binding signal of 1.74. Take GCACTT: the binding signal stood at 1.16. The result for ACCTCG reads 0.919. The same measure for GCTTTA: 1.81; for TAAAGA: 1.85; for CCCTAC: 1.19. The result for AATAGA reads 1.15; that for GATCTT, 1.71; that for CCCGGA, 1.03.

CGACGT gave a binding signal of 0.795. The same measure for ACCACC: 0.831.

In turn, CTCACT displayed a binding signal of 1.27. The same measure for CCGCGT: 0.834; for ATGGTA: 1.33.

In the case of CTATAT, the binding signal worked out at 1.3. The same measure for GATTCC: 1.15; for GTTTTC: 0.942. TTCCCC showed a binding signal of 1.44.

As for ATGTTC, the binding signal amounted to 1.22. CCTGTT registered a binding signal of 1.21. The same measure for AAGGAA: 0.942.
